{"sequences": {"note": "The chains behind the UniProt entries cited, without tags or fusion partners. Where a name states a change or a piece, a line headed by the entry shows the natural chain unless it says otherwise.", "UniProt P18054": "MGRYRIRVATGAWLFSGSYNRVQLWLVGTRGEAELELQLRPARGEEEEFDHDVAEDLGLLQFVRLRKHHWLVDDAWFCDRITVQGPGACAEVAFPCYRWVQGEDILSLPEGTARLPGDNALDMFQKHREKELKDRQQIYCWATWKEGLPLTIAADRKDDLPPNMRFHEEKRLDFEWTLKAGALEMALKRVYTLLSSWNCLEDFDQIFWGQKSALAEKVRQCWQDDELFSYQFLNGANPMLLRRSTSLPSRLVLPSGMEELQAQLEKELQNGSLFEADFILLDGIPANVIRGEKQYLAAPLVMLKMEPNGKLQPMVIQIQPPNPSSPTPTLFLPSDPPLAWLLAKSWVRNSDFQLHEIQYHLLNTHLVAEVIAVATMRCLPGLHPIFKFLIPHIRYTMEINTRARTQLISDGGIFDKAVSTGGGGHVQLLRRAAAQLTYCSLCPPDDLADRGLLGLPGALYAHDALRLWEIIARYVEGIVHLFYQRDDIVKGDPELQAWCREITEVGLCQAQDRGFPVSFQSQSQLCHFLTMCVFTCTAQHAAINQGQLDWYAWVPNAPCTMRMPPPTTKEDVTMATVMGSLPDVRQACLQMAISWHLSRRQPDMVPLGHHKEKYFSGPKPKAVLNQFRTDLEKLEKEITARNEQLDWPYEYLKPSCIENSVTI"}, "source": "PubChem BioAssay AID1671190", "about": "(National Center for Advancing Translational Sciences (NCATS), 2021)", "note": "“And” between values parts separate entries of the source, which are not always exact repeats. Equal values may be shown once. Hit rate of the full screen: of about 580,000 compounds, about 6,100 (1.1%) were called active. Inconclusive results, whose numbers are uncertain, are shown with a selection of clear calls. The call rests on the fitted dose curve; in most records, active means well fitted inhibition curve with a large enough effect; inconclusive means small, poorly fitted or top-dose-only effect, or another doubt; inactive means no such curve, though single readings can be large or run the other way. A potency beside an inconclusive call is a rough fit, not a confirmed value. On the % scale 0 is the no-effect control and ±100 the full control effect; potency means the concentration at half of the fitted maximal effect."}
{"target": "Polyunsaturated fatty acid lipoxygenase ALOX12 (Homo sapiens) (UniProt P18054)", "assay": "Primary qHTS assay for inhibitors of human arachidonate 12S-lipoxygenase (ALOX12): Round 2", "conditions": "purified 12hLO, xylenol orange hydroperoxide absorbance; activity change, negative = inhibition: at 108 µM (top of the series) unless noted", "procedure,_shortened": "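Purified human 12hLO (150 nM final) in 25 mM Hepes, 0.01% Triton X-100, pH 7.0 was preincubated 15 min at room temperature with compound. Then 40 uM arachidonic acid was added, 30 min. Hydroperoxide was read by Fe-XO absorbance ratio 573/405 nm.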"}
{"smiles": "CC(C)C[C@H]1CN([C@@H](Cc2ccc(O)cc2)CN2CCCC2CN2C(=S)NC[C@@H]2Cc2ccccc2)C(=S)N1CC1CCCCC1", "note": "(stereo not given in full)", "Potency": "inconclusive: 35.5 µM [inhibitor, partial curve, poor fit]"}
{"smiles": "CCC(=O)N1CCC(C(=O)Nc2ccc(S(=O)(=O)N3CCCC3)cc2)CC1", "activity change, negative = inhibition": "inactive: 1.4%"}
{"smiles": "COc1ccc(CN2C(=O)C(n3c(C)ccc3C)c3ccccc32)cc1", "note": "(stereo not given)", "Potency": "inconclusive: 44.7 µM [inhibitor, partial curve]"}
{"smiles": "COCCCNc1nc2nonc2nc1N1C[C@H]2CC[C@H]1C2", "activity change, negative = inhibition": "inactive: 8.03%"}
{"smiles": "CC(C)C[C@H]1CN(CCCC[C@@H]2CNC(=O)C(=O)N2CCc2ccccc2)C(=O)C(=O)N1CCC1CCCCC1", "Potency": "inconclusive: 56.2 µM [inhibitor, single point]"}
{"smiles": "NS(=O)(=O)c1ccc(N=Nc2c(O)c(C(=O)O)cc3ccccc23)cc1", "Potency": "inconclusive: 31.6 µM [inhibitor, partial curve, poor fit]"}
{"smiles": "Cc1ccc(NC(=O)Cn2sc3nc(C)cc(C)c3c2=O)c(Cl)c1", "Potency": "active: 2 µM"}
{"smiles": "CCc1ccccc1NC(=O)c1cc2sc(Cl)cc2n1CC", "Potency": "inconclusive: 158 µM [inhibitor, partial curve, poor fit]"}
{"smiles": "COc1ccc(CNS(=O)(=O)c2ccc(N3CCCC3)cc2Br)cc1", "Potency": "inconclusive: 1.58 µM [inhibitor, full curve, poor fit]"}
{"smiles": "C/C=C(/C)C(=O)O[C@@H]1[C@H](OC(=O)C=C(C)C)c2c(ccc3ccc(=O)oc23)OC1(C)C", "activity change, negative = inhibition": "inactive: 16%"}
{"smiles": "Cc1[nH]c2ccccc2c1C(c1ccncc1)c1c(C)[nH]c2ccccc12", "Potency": "inconclusive: 0.562 µM [inhibitor, full curve, poor fit]"}
{"smiles": "Cc1ccc2c(=O)cc(C(=O)Nc3nonc3-c3ccc4c(c3)CCCC4)oc2c1", "activity change, negative = inhibition": "inactive: -6.25%"}
{"smiles": "COc1ccc(C(=O)N[C@@H]2CCC[C@@H]2C(=O)NCCCOC(C)C)cn1", "activity change, negative = inhibition": "inactive: 4.35%"}
{"smiles": "COc1ccc(-c2csc(=Nc3ccccc3)n2CCO)cc1", "Potency": "inconclusive: 31.6 µM [inhibitor, partial curve, poor fit]"}
{"smiles": "O=C(Cc1noc(C(=O)NCc2ccncc2)n1)Nc1cccc2ncccc12", "activity change, negative = inhibition": "inactive: 8.28%"}
{"smiles": "N#CC1=C(N)OC2=C(C(=O)CC(c3ccc(Cl)cc3)C2)C1c1ccccc1Cl", "note": "(stereo not given)", "Potency": "active: 15.8 µM"}
{"smiles": "CCC1CCC/C1=N\\NC(=O)c1cc(C)[nH]n1", "note": "(stereo not given)", "activity change, negative = inhibition": "inactive: 22%"}
{"smiles": "CCCCCCCCCCC(=O)c1ccc(Cl)cc1", "activity change, negative = inhibition": "inactive: -24.2%"}
{"smiles": "CCCc1cc(=S)n2c([nH]c3ccccc32)c1C#N", "Potency": "inconclusive: 89.1 µM [inhibitor, single point]"}
{"smiles": "Cc1ccc(-c2nc(S(=O)(=O)c3ccccc3)c(SCC(=O)NCC3CCCO3)o2)cc1", "note": "(stereo not given)", "Potency": "inconclusive: 50.1 µM [inhibitor, partial curve, poor fit]"}
{"smiles": "CCN1CCc2c(sc(NC(=O)Nc3ccc(Cl)c(Cl)c3)c2C(N)=O)C1", "Potency": "inconclusive: 89.1 µM [inhibitor, partial curve, poor fit] and inconclusive: 28.2 µM [inhibitor, partial curve, poor fit]"}
{"smiles": "O=S(=O)(NC1CCN(S(=O)(=O)c2ccc(Br)cc2)CC1)c1cccs1", "Potency": "inconclusive: 39.8 µM [inhibitor, partial curve, poor fit]"}
{"smiles": "COc1ccc(-c2c3c(=O)n(C)c(=O)n(C)c3cn2-c2ccccc2)cc1", "Potency": "inconclusive: 126 µM [inhibitor, single point]"}
{"smiles": "CC(C)c1noc([C@H]2C[C@@H]3NCCCCCCNC(=O)[C@@H]3C2)n1", "Potency": "inconclusive: 7.94 µM [inhibitor, full curve]"}
{"smiles": "CCNC(=O)[C@H]1CCC[C@H]1NC(=O)c1ccc(OC)cc1", "activity change, negative = inhibition": "inactive: 52.9%"}
{"smiles": "Cc1cc(F)ccc1NS(=O)(=O)c1cccc2nsnc12", "activity change, negative = inhibition": "inactive: 16.6%"}
{"smiles": "COc1ccc([C@@H]2CC=C(C(=O)O)[C@H](c3cccc(Cl)c3)N2S(=O)(=O)c2ccc(Cl)cc2)cc1", "Potency": "inconclusive: 44.7 µM [inhibitor, partial curve, poor fit]"}
{"smiles": "CC(=O)NC(C)C(=O)Nc1ccc(SC2CCCC2)cc1", "note": "(stereo not given)", "activity change, negative = inhibition": "inactive: 7.28%"}
{"smiles": "O=C(CCNC(=O)c1ccc(Br)cc1)NC1CCCc2ccccc21", "note": "(stereo not given)", "Potency": "inconclusive: 35.5 µM [inhibitor, partial curve, poor fit]"}
{"smiles": "Cc1ccc(-c2cc(C(=O)Nc3nn[nH]n3)c3ccccc3n2)c(C)c1", "Potency": "inconclusive: 12.6 µM [inhibitor, partial curve, poor fit]"}
{"smiles": "COC(=O)Cc1nnc(Nc2cccc(C)c2)c2ccccc12", "Potency": "inconclusive: 89.1 µM [inhibitor, partial curve, poor fit]"}
{"smiles": "CC(Oc1ccc2ccc(=O)oc2c1)C(=O)Nc1ccc(C(N)=O)cc1", "note": "(stereo not given)", "Potency": "inconclusive: 50.1 µM [inhibitor, partial curve, poor fit]"}
{"smiles": "CC(=O)Nc1ccc(S(=O)(=O)N[C@@H](C)C(=O)OCC(=O)c2ccc(C)cc2)cc1", "Potency": "inconclusive: 126 µM [inhibitor, single point]"}
{"smiles": "COc1ccc(CNc2cc(-c3ccccc3OC)ncn2)c(OC)c1", "Potency": "inconclusive: 56.2 µM [inhibitor, partial curve, poor fit]"}
{"smiles": "Cc1ccccc1OCC(=O)Nc1ccc(N2CCN(C(=O)c3ccco3)CC2)cc1", "activity change, negative = inhibition": "inactive: 1.43%"}
{"smiles": "Cc1cccc(N2CCN(c3cc(C(=O)O)c4cc(NC(=O)C(C)(C)C)ccc4n3)CC2)c1", "Potency": "active: 14.1 µM"}
{"smiles": "COc1ccccc1N1CCN(C(=O)c2c(-c3c(F)cccc3Cl)noc2C)CC1", "Potency": "inconclusive: 31.6 µM [inhibitor, partial curve, poor fit]"}
{"smiles": "CC1=C[C@@H](CNC(=O)CCCC(=O)O)[C@H](C(C)C)C[C@H]1Cc1nc2c(C)cccc2[nH]1", "Potency": "inconclusive: 28.2 µM [inhibitor, single point]"}
{"smiles": "FC(F)Oc1ccc(N=C2SCC3CCCCN23)cc1", "note": "(stereo not given)", "activity change, negative = inhibition": "inactive: -4.76%"}
{"smiles": "COc1ccc(/C=C/C(=O)NC(=S)Nc2ccc(S(=O)(=O)Nc3ccc(OC)nn3)cc2)cc1", "Potency": "inconclusive: 7.08 µM [inhibitor, full curve]"}
{"smiles": "CCN1c2cc(C(=O)Nc3ccc(C)c(F)c3)ccc2C(=O)N2CCCCCC21", "note": "(stereo not given)", "activity change, negative = inhibition": "inactive: 7.07%"}
{"smiles": "O=C(Cn1cc(/C=C2\\NC(=O)NC2=O)c2ccccc21)Nc1ccccc1", "Potency": "inconclusive: 89.1 µM [inhibitor, partial curve, poor fit]"}
{"smiles": "COC(=O)[C@H](C(C)C)N(Cc1cn(Cc2ccc(C)cc2)nn1)S(=O)(=O)c1ccccc1Br", "Potency": "inconclusive: 0.355 µM [inhibitor, full curve, poor fit]"}
{"smiles": "O=S(=O)(Nc1nc2ccccc2nc1Nc1cccc(F)c1)c1cccc(Cl)c1", "Potency": "inconclusive: 44.7 µM [inhibitor, partial curve, poor fit]"}
{"smiles": "COc1ccccc1CCc1nnc(CCC(=O)NC(C)Cc2ccsc2)o1", "note": "(stereo not given)", "activity change, negative = inhibition": "inactive: 2.64%"}
{"smiles": "CC(=O)c1cccc(CN2CCC(C(=O)Nc3ccc(-c4cccc(C)c4)cc3)CC2)c1", "Potency": "inconclusive: 100 µM [inhibitor, single point]"}
{"smiles": "Cc1cc2oc3ccc(NCCC4CCCN4C)cc3c(=O)c2cc1C", "note": "(stereo not given)", "Potency": "inconclusive: 50.1 µM [inhibitor, single point]"}
{"smiles": "CN1C[C@H](NC(=O)NC2(c3ccccc3)CCOCC2)CCC[C@@H](C(=O)N(C)Cc2cccnc2)CC1=O", "Potency": "inconclusive: 2.51 µM [inhibitor, full curve]"}
{"smiles": "O=C(CCc1c[nH]c2ccccc12)NCC(F)(F)F", "Potency": "inconclusive: 4.47 µM [inhibitor, full curve, poor fit]"}
{"smiles": "Cc1ccc(C(=O)NC(=S)NNC(=O)c2ccccc2)cc1", "Potency": "inconclusive: 39.8 µM [inhibitor, partial curve, poor fit]"}
{"smiles": "COc1ccc(C(=O)Oc2ccc(/C=N/NC(=O)c3ccccc3OC)cc2[N+](=O)[O-])cc1", "activity change, negative = inhibition": "inactive: -8.05%"}
{"smiles": "O=C(CSc1nnc(-c2cccnc2)n1-c1ccccc1)Nc1ccc(Cl)cn1", "activity change, negative = inhibition": "inactive: -7.61%"}
{"smiles": "Nc1nc(N)c(-c2cccc(C(F)(F)F)c2)c(Cc2cccc(C(F)(F)F)c2)n1", "Potency": "inconclusive: 39.8 µM [inhibitor, partial curve]"}
{"smiles": "CSC1=N/C(=C\\c2ccccc2Cl)C(=O)N1N(C)C", "Potency": "inconclusive: 35.5 µM [inhibitor, single point]"}
{"smiles": "COc1ccc(OC)c(/C(O)=C/C(=O)C(=O)Nc2cc(C)ccc2OC)c1", "activity change, negative = inhibition": "inactive: -0.806%"}
{"smiles": "Cc1ccc(C)n1-c1ccc(N2CCOCC2)c(Br)c1", "activity change, negative = inhibition": "inactive: -7.65%"}
{"smiles": "CCC(C(=O)Nc1c(C)cccc1C)n1c(-c2ccc(=O)[nH]c2)nc2ccccc21", "note": "(stereo not given)", "Potency": "inconclusive: 44.7 µM [inhibitor, single point]"}
{"smiles": "COc1ccc(Cc2nc(C)c(-c3ccccc3)s2)cc1OC", "Potency": "inconclusive: 63.1 µM [inhibitor, partial curve, poor fit]"}
{"smiles": "CC1=C(C(=O)Nc2ccc(C)cc2Cl)C2(CCCCC2)OC1=O", "Potency": "inconclusive: 79.4 µM [inhibitor, partial curve, poor fit]"}
{"smiles": "CCOc1nc(-c2ccccc2Cl)nc2ccccc12", "activity change, negative = inhibition": "inactive: 0%"}
{"smiles": "COc1ccc(-c2nc(C#N)c(NCC(c3cccs3)N(C)C)o2)cc1", "note": "(stereo not given)", "activity change, negative = inhibition": "inactive: -12.6%"}
{"smiles": "CCCCCC(=O)N1CCN(CCNc2cc(=O)oc3ccccc23)CC1", "activity change, negative = inhibition": "inactive: -18.6%"}
{"smiles": "CN1C(=O)CC[C@]2(C(=O)NCc3cccs3)CCCC[C@@H]12", "activity change, negative = inhibition": "inactive: 20.4%"}
{"smiles": "CC(C)CNC(=O)c1nc(-c2ccc(Cl)cc2)c2cnccn12", "Potency": "inconclusive: 2.24 µM [inhibitor, full curve, poor fit]"}
{"smiles": "C=CCNc1c(O)cc2c(O)c1C[C@@H](C)C[C@H](OC)[C@@H](O)[C@@H](C)C=C(C)[C@H](OC(N)=O)[C@@H](OC)C=CC=C(C)C(=O)N2", "Potency": "inconclusive: 17.2 µM [inhibitor, partial curve, poor fit]"}
